# In PubChem BioAssay AID504847 (National Center for Advancing Translational Sciences (NCATS), 2011):
# The chains behind the UniProt entries cited, without tags or fusion partners. Where a name states a change or a piece, a line headed by the entry shows the natural chain unless it says otherwise.
# UniProt P11473: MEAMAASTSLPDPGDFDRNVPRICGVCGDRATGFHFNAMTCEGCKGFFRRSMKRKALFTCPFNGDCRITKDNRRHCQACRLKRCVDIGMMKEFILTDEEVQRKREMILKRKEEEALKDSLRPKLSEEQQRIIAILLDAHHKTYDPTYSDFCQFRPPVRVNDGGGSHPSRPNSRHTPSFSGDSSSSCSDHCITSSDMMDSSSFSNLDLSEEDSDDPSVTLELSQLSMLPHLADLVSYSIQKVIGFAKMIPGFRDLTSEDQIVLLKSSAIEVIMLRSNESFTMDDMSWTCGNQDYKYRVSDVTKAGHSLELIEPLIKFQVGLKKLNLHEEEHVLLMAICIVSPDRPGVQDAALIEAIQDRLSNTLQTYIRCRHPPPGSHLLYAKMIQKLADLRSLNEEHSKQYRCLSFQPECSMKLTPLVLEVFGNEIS
# Values joined by “and” are separate entries in the source; they are usually repeats but may differ in a detail not shown here. Equal entries are not always repeated. Hit rate of the full screen: of about 400,000 compounds, about 3,700 (0.93%) were called active. This list was built around the results that the source calls inconclusive (neither active nor inactive); the mix of calls is not that of the screen. The call rests on the fitted dose curve; in most records, active means well fitted inhibition curve with a large enough effect; inconclusive means small, poorly fitted or top-dose-only effect, or another doubt; inactive means no such curve, though single readings can be large or run the other way. A potency beside an inconclusive call is a rough fit, not a confirmed value.
# Biological target: Vitamin D3 receptor (Homo sapiens) (UniProt P11473)
# Assay: Inhibitors of the vitamin D receptor (VDR): qHTS
# Conditions: VDR-SRC2-3 peptide fluorescence polarization, 2 h; max response, negative = inhibition: stronger effect = lower value
# In short: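 Measured by FP: displacement of SRC2-3 coactivator peptide from VDR by library compounds, following a two-hour ambient incubation.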
# On the % scale 0 is the no-effect control and ±100 the full control effect; potency means the concentration at half of the fitted maximal effect.
Structure (SMILES),Potency,"max response, negative = inhibition"
O=c1[nH]c(/C=C/c2ccccc2)c([N+](=O)[O-])c(=O)[nH]1,active: 22.4 µM,
Cc1ccccc1NC(=O)C(=O)NCCCN1CCOCC1,,inactive: -9.71%
O=C(Cn1cc(C(F)(F)F)cc(Cl)c1=O)Nc1ccc(N2CCOCC2)cc1,"inconclusive: 70.8 µM [inhibitor, partial curve]",
CC(C)c1ccc(NC(=O)CN2C(=O)NC(C)(C3CC3)C2=O)cc1 (stereo not drawn),"inconclusive: 70.8 µM [inhibitor, partial curve]",
COc1cc(C2Oc3ccccc3C=C2[N+](=O)[O-])cc(OC)c1OC (stereo not drawn),active: 22.4 µM,
COc1ccc(C(=O)/C=C/c2ccc(OC3CSC3)cc2)cc1OC,"inconclusive: 50.1 µM [inhibitor, partial curve]",
C=C1CC2(CC(c3ccccc3)OC(c3ccccc3)C2)OC1=O (stereo not drawn),"inconclusive: 89.1 µM [inhibitor, partial curve, poor fit]",
CC(NS(=O)(=O)c1ccc(Cl)cc1)C(=O)OCC(=O)Nc1ccc(N(C)C)cc1 (stereo not drawn),"inconclusive: 89.1 µM [inhibitor, single point]",
O=C(CN1C2=NCCCN2c2ccccc21)c1cccc(Br)c1,"inconclusive: 56.2 µM [inhibitor, partial curve, poor fit]",
Cn1nc(C(F)(F)F)c2cc(C(=O)O)sc21,,inactive: 6.19%
CC(=O)N1CCc2cc(S(=O)(=O)CCC(=O)N3CCN(c4cccc(C)c4C)CC3)ccc21,,inactive: -19.5%
COc1cc(-c2cc(C(=O)Nc3ccc(S(=O)(=O)Nc4ncccn4)cc3)c3ccccc3n2)cc(OC)c1OC,"inconclusive: 39.8 µM [inhibitor, partial curve, poor fit]",
COc1cc(/C=C/C(=O)c2cccs2)cc(OC)c1OC,active: 12.6 µM,
CCCCCCN1C(=O)C(O)=C(C(C)=O)C1c1ccc(Cl)cc1 (stereo not drawn),"inconclusive: 89.1 µM [inhibitor, single point]",
Cc1cc(C(=O)Nc2sc3c(c2C#N)CCC(C(C)(C)C)C3)no1 (stereo not drawn),,inactive: 7.13%
CCN(CC)CCCCN1c2ccccc2Oc2ccc(Cl)cc21,"inconclusive: 31.6 µM [inhibitor, partial curve, poor fit]",
CC(=O)C1=C(O)C(=O)N(c2nccs2)C1c1ccc(F)cc1 (stereo not drawn),"inconclusive: 25.1 µM [inhibitor, full curve, poor fit]",
Cn1c(=O)oc2cc(S(=O)(=O)Nc3cccc(C(=O)O)c3)ccc21,,inactive: 5.15%
CCOC(=O)c1c(NC(=O)c2cc(-c3cccc(OC)c3)on2)sc2c1CCCC2,active: 79.4 µM,
COc1ccc(CC(=O)NCC(c2cccs2)S(=O)(=O)c2ccc(C)cc2)cc1 (stereo not drawn),,inactive: 7.74%
CCNC(=O)COC(=O)c1cc(-c2ccco2)nc2ccccc12,"inconclusive: 89.1 µM [inhibitor, single point]",
CC(C)c1ccc(NC(=O)CN2C(=O)COc3ccc(S(=O)(=O)N4CCCCCC4)cc32)cc1,,inactive: 8.91%

Structure (SMILES),Potency,"max response, negative = inhibition"
CC1CC=CC2C1C(=O)N(Cc1ccccc1)C2c1ccc(-c2ccoc2)cc1F (stereo not drawn),"inconclusive: 89.1 µM [inhibitor, partial curve, poor fit]",
O=C1CC(Sc2ncccn2)C(=O)N1c1ccccc1 (stereo not drawn),,inactive: 14.2%
COc1ccccc1-c1cc(-c2ccc(C)cc2)nc(SCc2nnc(-c3ccccc3)o2)c1C#N,"inconclusive: 79.4 µM [inhibitor, single point]",
N#C/C(=C\c1ccc(O)c(O)c1)C(=O)Nc1cccc2ncccc12,"inconclusive: 89.1 µM [inhibitor, single point]",
COc1cc(/C=C2\SC(=S)N(NS(=O)(=O)c3ccc(C)cc3)C2=O)ccc1O,,inactive: 8.11%
Cn1c(N)nc2ccccc2c1=O,,inactive: 16.1%
Cc1ccccc1OCc1nc2ccc(S(=O)(=O)N3CCOCC3)cc2[nH]1,active: 39.8 µM,
Oc1ccc(CNc2ccccc2F)c2cccnc12,"inconclusive: 50.1 µM [inhibitor, partial curve, poor fit]",
CCOC(=O)N1CCC(NC(=O)c2ccc3c(c2)N(CC)CCS3)CC1,"inconclusive: 56.2 µM [inhibitor, partial curve, poor fit]",
CCOC(=O)Cc1csc(N/C(=N/S(=O)(=O)c2ccc(Cl)cc2)c2ccccc2)n1,"inconclusive: 50.1 µM [inhibitor, partial curve, poor fit]",
NC(CO)C(=O)NNCc1ccc(O)c(O)c1O (stereo not drawn),active: 79.4 µM and active: 44.7 µM,
CC1OC(CC(=O)O)CC2=C1C(=O)c1c(O)cccc1C2=O (stereo not drawn),active: 10 µM,
CC1=CN2C(=N)/C(=C\c3cn(CCCOc4ccccc4)c4ccccc34)C(=O)N=C2S1,"inconclusive: 8.91 µM [inhibitor, partial curve, poor fit]",
Cc1ccc2nc(-c3cccc(-c4nc5ccc(C)cc5o4)n3)oc2c1,active: 50.1 µM,
CCCn1c(SCC(=O)N2c3ccc(F)cc3CCC2C)nnc1-c1ccccn1 (stereo not drawn),"inconclusive: 25.1 µM [inhibitor, full curve, poor fit]",
CC1CCCN(S(=O)(=O)c2ccc(NC(=O)CN3C(=O)NC(C)(c4ccccc4)C3=O)cc2)C1 (stereo not drawn),,inactive: -3.2%
CCSc1nc(N2CCOCC2)c2ccccc2n1,"inconclusive: 39.8 µM [inhibitor, partial curve, poor fit]",
COc1cccc(NC(=O)c2cc(-c3ccc(C)o3)nc3ccccc23)c1,"inconclusive: 39.8 µM [inhibitor, partial curve, poor fit]",
COc1cccc(Cn2c(=O)cnc3cnc(N(C)C)nc32)c1,"inconclusive: 100 µM [inhibitor, single point]",
CC1CCCCN1C(=O)c1cc2nc(-c3ccccc3)cc(-c3ccccc3)n2n1 (stereo not drawn),"inconclusive: 79.4 µM [inhibitor, single point]",
O=C(c1ccc(-c2cccc(Cl)c2)o1)N1CCN(c2ccc([N+](=O)[O-])cc2)CC1,"inconclusive: 89.1 µM [inhibitor, single point]",

# Sorted by count of non-hydrogen atoms (descending): some entries from above.
Structure (SMILES),Potency,"max response, negative = inhibition"
CCCn1c(SCC(=O)N2c3ccc(F)cc3CCC2C)nnc1-c1ccccn1 (stereo not drawn),"inconclusive: 25.1 µM [inhibitor, full curve, poor fit]",
Cn1c(=O)oc2cc(S(=O)(=O)Nc3cccc(C(=O)O)c3)ccc21,,inactive: 5.15%
O=C1CC(Sc2ncccn2)C(=O)N1c1ccccc1 (stereo not drawn),,inactive: 14.2%
